Consider 2 molecules from US20140135288A1.

By UniProt entry, the sequences of proteins in these tests, tags left out. Residues count along the entry.
UniProt P0DMV8, residues 2-641: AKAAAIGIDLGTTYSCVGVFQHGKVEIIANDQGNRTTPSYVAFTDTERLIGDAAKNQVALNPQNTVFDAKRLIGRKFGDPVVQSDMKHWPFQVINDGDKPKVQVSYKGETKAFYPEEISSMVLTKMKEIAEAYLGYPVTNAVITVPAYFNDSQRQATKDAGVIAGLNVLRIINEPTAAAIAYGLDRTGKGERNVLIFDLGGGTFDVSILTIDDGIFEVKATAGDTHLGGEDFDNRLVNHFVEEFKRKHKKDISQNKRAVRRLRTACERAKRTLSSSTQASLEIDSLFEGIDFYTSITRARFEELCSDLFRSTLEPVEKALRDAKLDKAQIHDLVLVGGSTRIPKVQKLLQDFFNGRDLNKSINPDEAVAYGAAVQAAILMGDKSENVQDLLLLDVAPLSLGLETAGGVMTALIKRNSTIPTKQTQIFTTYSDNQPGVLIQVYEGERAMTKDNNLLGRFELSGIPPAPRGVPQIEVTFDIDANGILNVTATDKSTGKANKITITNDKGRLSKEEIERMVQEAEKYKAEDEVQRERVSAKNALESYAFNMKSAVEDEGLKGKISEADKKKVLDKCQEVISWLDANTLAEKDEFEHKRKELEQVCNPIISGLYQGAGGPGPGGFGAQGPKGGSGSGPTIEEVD
UniProt P19838: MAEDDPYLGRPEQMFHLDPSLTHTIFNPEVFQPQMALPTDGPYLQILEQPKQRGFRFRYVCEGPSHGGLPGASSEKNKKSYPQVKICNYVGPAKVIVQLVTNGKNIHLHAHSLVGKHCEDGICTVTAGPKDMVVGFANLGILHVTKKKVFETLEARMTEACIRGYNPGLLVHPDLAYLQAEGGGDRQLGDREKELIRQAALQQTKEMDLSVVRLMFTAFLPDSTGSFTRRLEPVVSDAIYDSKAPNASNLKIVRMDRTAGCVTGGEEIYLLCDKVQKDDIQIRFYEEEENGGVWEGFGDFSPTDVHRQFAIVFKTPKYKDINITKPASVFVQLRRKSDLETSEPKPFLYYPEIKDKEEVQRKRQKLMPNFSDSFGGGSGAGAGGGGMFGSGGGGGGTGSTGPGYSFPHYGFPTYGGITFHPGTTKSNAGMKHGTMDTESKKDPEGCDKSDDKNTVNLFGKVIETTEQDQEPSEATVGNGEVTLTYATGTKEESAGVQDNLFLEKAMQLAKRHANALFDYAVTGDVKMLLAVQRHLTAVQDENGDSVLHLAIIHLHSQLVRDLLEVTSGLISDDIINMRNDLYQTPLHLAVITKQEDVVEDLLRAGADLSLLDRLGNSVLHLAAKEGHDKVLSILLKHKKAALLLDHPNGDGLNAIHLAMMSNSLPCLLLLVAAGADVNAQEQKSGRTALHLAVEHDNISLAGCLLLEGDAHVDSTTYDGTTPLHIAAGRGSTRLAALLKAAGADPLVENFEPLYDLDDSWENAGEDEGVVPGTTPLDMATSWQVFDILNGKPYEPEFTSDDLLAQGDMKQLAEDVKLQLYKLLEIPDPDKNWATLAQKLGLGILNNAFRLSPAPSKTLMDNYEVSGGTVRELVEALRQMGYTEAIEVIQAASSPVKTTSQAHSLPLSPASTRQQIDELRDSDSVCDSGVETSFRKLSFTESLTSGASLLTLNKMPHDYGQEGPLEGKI

Experiment [1] concerns the target heat shock protein (HSP) 70 (UniProt P0DMV8). Kind of experiment: co-immunoprecipitation with V5 antibody, Western blot (FIG. 13). On the technique in general: In western blotting, separated proteins are transferred to a membrane and probed.
For experiment [2] the target is unchanged. Kind of experiment: co-immunoprecipitation with V5 antibody from Daudi cell lysate, Western blot for HSP70.

These are yes or no findings as the source states them, for the method shown. Binding seen in cells or lysates may run through a third protein. Some results given as binding are weak or reduced against the parent protein; the word gives no strength. Sequences can lack the tags named with a protein.

On to “NF-κB1 (P105)-V5 tagged protein (from UniProt P19838 1-968)”, for which the binding result in experiment [1] and in experiment [2] was “binds” each time.

B1: NF-κB2 (p100)-V5 tagged protein (protein, human, UniProt Q00653 1-900, looked up, not shown: small tags and cut ends)
chain: MESCYNPGLDGIIEYDDFKLNSSIVEPKEPAPETADGPYLVIVEQPKQRGFRFRYGCEGPSHGGLPGASSEKGRKTYPTVKICNYEGPAKIEVDLVTHSDPPRAHAHSLVGKQCSELGICAVSVGPKDMTAQFNNLGVLHVTKKNMMGTMIQKLQRQRLRSRPQGLTEAEQRELEQEAKELKKVMDLSIVRLRFSAFLRASDGSFSLPLKPVISQPIHDSKSPGASNLKISRMDKTAGSVRGGDEVYLLCDKVQKDDIEVRFYEDDENGWQAFGDFSPTDVHKQYAIVFRTPPYHKMKIERPVTVFLQLKRKRGGDVSDSKQFTYYPLVEDKEEVQRKRRKALPTFSQPFGGGSHMGGGSGGAAGGYGGAGGGGSLGFFPSSLAYSPYQSGAGPMGCYPGGGGGAQMAATVPSRDSGEEAAEPSAPSRTPQCEPQAPEMLQRAREYNARLFGLAQRSARALLDYGVTADARALLAGQRHLLTAQDENGDTPLHLAIIHGQTSVIEQIVYVIHHAQDLGVVNLTNHLHQTPLHLAVITGQTSVVSFLLRVGADPALLDRHGDSAMHLALRAGAGAPELLRALLQSGAPAVPQLLHMPDFEGLYPVHLAVRARSPECLDLLVDSGAEVEATERQGGRTALHLATEMEELGLVTHLVTKLRANVNARTFAGNTPLHLAAGLGYPTLTRLLLKAGADIHAENEEPLCPLPSPPTSDSDSDSEGPEKDTRSSFRGHTPLDLTCSTKVKTLLLNAAQNTMEPPLTPPSPAGPGLSLGDTALQNLEQLLDGPEAQGSWAELAERLGLRSLVDTYRQTTSPSGSLLRSYELAGGDLAGLLEALSDMGLEEGVRLLRGPETRDKLPSTAEVKEDSAYGSQSVEQEAEKLGPPPEPPGGLCHGHPQPQVH
B1: the binding entry in experiment [1] and in experiment [2] was “binds” each time.
